US20230272054A1, “COMBINATION THERAPIES FOR THE TREATMENT AND PREVENTION OF BIOFILMS” (priority 2020, published 2023)
These are yes or no findings as the source states them, for the method shown. Some entries that bind do so weakly or less than the wild type. For some assays here: Tags and fused reporters may be left off the sequences shown.

Sequences of proteins named here, by UniProt entry; tags and fusion partners are left off. A change or cut given only in a name is not applied to a line headed by its entry.
UniProt P09429: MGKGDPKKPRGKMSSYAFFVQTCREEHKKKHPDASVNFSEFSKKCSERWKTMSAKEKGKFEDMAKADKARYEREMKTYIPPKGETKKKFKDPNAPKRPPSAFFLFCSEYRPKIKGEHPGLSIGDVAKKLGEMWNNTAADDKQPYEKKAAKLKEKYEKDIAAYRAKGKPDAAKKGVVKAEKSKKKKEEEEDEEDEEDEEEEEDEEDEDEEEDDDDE

Experiments:
[1] = biological target: T1, HUNTHI, native histone-like protein HU (DNABII protein) of nontypeable Haemophilus influenzae (nontypeable Haemophilus influenzae (NTHI)) (UniProt P43722); test: SPR (Biacore)
T1 sequence: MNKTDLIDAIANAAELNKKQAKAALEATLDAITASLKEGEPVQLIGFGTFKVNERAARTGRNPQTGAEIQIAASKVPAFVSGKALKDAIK

[2] = biological target: T2, IHFNTHI, native integration host factor (DNABII protein) of nontypeable Haemophilus influenzae (nontypeable Haemophilus influenzae (NTHI)) (UniProt P43723); test: SPR (Biacore)
T2 sequence 1: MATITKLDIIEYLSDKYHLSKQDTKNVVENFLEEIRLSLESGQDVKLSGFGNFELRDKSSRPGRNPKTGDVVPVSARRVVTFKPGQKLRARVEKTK
T2 sequence 2: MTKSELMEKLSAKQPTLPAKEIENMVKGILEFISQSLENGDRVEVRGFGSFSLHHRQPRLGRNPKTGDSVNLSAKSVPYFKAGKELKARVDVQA

Substance: mHMGB1 (C45S), recombinant human HMGB1 with an engineered single amino acid mutation C45S (from UniProt P09429 1-215)
- binding [1]: binds
- binding [2]: binds
